Source: PMC5327418

The chains behind the UniProt entries cited, without tags or fusion partners.
UniProt P32569: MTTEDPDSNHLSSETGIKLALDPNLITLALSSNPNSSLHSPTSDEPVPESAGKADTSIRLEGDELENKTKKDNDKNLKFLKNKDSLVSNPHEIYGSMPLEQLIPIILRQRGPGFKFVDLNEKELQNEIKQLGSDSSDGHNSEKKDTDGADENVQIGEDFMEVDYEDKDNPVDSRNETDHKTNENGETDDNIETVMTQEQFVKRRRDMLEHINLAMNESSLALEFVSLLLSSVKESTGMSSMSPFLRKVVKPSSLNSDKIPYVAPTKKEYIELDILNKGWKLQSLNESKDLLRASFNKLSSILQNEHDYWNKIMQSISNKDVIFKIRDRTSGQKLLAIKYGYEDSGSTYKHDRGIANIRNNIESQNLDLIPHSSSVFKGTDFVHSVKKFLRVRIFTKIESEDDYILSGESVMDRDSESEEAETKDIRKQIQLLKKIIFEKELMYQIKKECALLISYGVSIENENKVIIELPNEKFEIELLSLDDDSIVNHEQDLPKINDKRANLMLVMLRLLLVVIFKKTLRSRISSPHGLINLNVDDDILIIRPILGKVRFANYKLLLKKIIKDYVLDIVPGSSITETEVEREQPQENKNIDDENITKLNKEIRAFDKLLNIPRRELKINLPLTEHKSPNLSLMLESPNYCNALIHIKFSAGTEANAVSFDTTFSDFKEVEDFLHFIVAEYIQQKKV

Target: Med17-HA (S. cerevisiae (endogenous in S288c)) (UniProt P32569)
Assay: affinity purification with mass spectrometry; CoIP of Med17-HA on anti-HA magnetic beads from cryoground yeast lysate, 2 h at 4 °C; 20 mM HEPES pH 7.5, 300 mM KOAc, 10% glycerol, 0.01% NP-40, 6 mM MnSO4, 1 mM DTT, Cyanase nuclease; parallel control CoIP from 15N-labelled wild type cells, mixing after purification (MAP); GeLC-MS/MS, three biological replicates

B1: Ccl1 (protein, UniProt P37366 1-393)
chain: MTDIQLNGKSTLDTPSATMSAKEKEAKLKSADENNKPPNYKRISDDDLYRHSSQYRMWSYTKDQLQEKRVDTNARAIAYIEENLLKFREAHNLTEEEIKVLEAKAIPLTMEEELDLVNFYAKKVQVIAQHLNLPTEVVATAISFFRRFFLENSVMQIDPKSIVHTTIFLACKSENYFISVDSFAQKAKSTRDSVLKFEFKLLESLKFSLLNHHPYKPLHGFFLDIQNVLYGKVDLNYMGQIYDRCKKRITAALLTDVVYFYTPPQITLATLLIEDEALVTRYLETKFPSREGSQESVPGNEKEEPQNDASTTEKNKEKSTESEEYSIDSAKLLTIIRECKSIIEDCKPPSTEEAKKIAAKNYYCQNPSTLIQKLKRKLNGEDTSSTVEKKQKT
Which binding does the source give for B1 here?
Its binding is “binds”.

B2: Hfi1 (protein, UniProt Q12060 1-488)
chain: MSAIQSPAPKPLQPTYPAASPASTNAYMKPGLIGSPAVSNHTEPNNGNNETAEPQGPNQRIDLGAMIEELTSLLGKESWTKYAQIISLFILGKLSRKELSNELELVFSPSAASLEKSNTNHHHSLVRLHNQLLLGIFANSLRENPLGRNGNESSWGFGNGSNNPNNKLKRINKHNSQIEVYKKIVMSLPLNDRNRLKMITKEAGKRGFIFCSVFQARLNNIPKIPIVTNPESLKRVKSNNLKTPLEWSQDIMNGFNVPLASESHSLPDTDSFYLRMVGIAREHGLVGTVDARCVELISLALDQYLKNIIEFTIDTVRYRRKKYSDYYDLNESGLYKSVSEMAADKRDAKIKQLDDDKNEDECADEAKSINNGNNSSKDDIGDISMSSITKAGEAVNEELHENRTISLTNEDIYDSLSIFPNLVEPSGSYYALTNLGLVNDDELVDMKSNIDDLPDFLNEKPTFTPLDERNVGTRHELNWLIKGILTED
B2 was tested. Which binding did it give?
Its binding is “binds”.

B3: Spt3 (protein, UniProt P06844 1-337)
chain: MMDKHKYRVEIQQMMFVSGEINDPPVETTSLIEDIVRGQVIEILLQSNKTAHLRGSRSILPEDVIFLIRHDKAKVNRLRTYLSWKDLRKNAKDQDASAGVASGTGNPGAGGEDDLKKAGGGEKDEKDGGNMMKVKKSQIKLPWELQFMFNEHPLENNDDNDDMDEDEREANIVTLKRLKMADDRTRNMTKEEYVHWSDCRQASFTFRKNKRFKDWSGISQLTEGKPHDDVIDILGFLTFEIVCSLTETALKIKQREQVLQTQKDKSQQSSQDNTNFEFASSTLHRKKRLFDGPENVINPLKPRHIEEAWRVLQTIDMRHRALTNFKGGRLSSKPIIM
With B3 as the binder, how does the binding read?
Its binding is “binds”.

B4: Spt8 (protein, UniProt P38915 1-602)
chain: MDEVDDILINNQVVDDEEDDEEMLSGLENDSKQDLEGNDDGGEDEEDDDDDDEDDDDDEDEREDDDEQEDDDGEDDAARMDKTATPTNEHQHDEQKAAAAGAGGAGDSGDAVTKIGSEDVKLSDVDGGVGSREASSSTHEASANGEVYEYYKHMLNAAQIADSYNIYPTAAIPIQTHVNALAVSRGLKYLFLGGSDGYIRKYDLLNTLEGKLSLTILQKHSLAESIQNAGILQSYWENEIPQKKSEMKLSANKTDYEPKVSPVHSLEVQSECLFILSGLQNGGITMQGVRYMEGSIAHYFKGRNGHTQIVNILRLNGQEDRFLSGSWDKRLLEWDLQTGDIVNEFKKSRSELSSLEMRPLYSSVDVSGNVNSGKENENADDDMDSLFGDEDEDEKQDAGNEPVETGDGSNGEENKEQISEESLNIVYDESVFMTSGLNGSVHIWDRRMTQSPALSLERGAGVPPWCLSACWGVDGDHVYAGRRNACVEQFDLKMPSKPIHNLKLPSISGPVSCVKAMPNNKHLLCASRDNIRLYNVEIAVDASNSTTKSSKVPFLIVPGHHGGIISNLYLDPTSRFIISTSGNRGWQGNSTDTTLIYDIDLE
B4 was tested. Which binding did it give?
The binding was “binds”.

B5: Spt20 (protein, UniProt P50875 1-604)
chain: MSANSPTGNDPHVFGIPVNATPSNMGSPGSPVNVPPPMNPAVANVNHPVMRTNSNSNANEGTRTLTREQIQQLQQRQRLLLQQRLLEQQRKQQALQNYEAQFYQMLMTLNKRPKRLYNFVEDADSILKKYEQYLHSFEFHIYENNYKICAPANSRLQQQQKQPELTSDGLILTKNNETLKEFLEYVARGRIPDAIMEVLRDCNIQFYEGNLILQVYDHTNTVDVTPKENKPNLNSSSSPSNNNSTQDNSKIQQPSEPNSGVANTGANTANKKASFKRPRVYRTLLKPNDLTTYYDMMSYADNARFSDSIYQQFESEILTLTKRNLSLSVPLNPYEHRDMLEETAFSEPHWDSEKKSFIHEHRAESTREGTKGVVGHIEERDEFPQHSSNYEQLMLIMNERTTTITNSTFAVSLTKNAMEIASSSSNGVRGASSSTSNSASNTRNNSLANGNQVALAAAAAAAAVGSTMGNDNNQFSRLKFIEQWRINKEKRKQQALSANINPTPFNARISMTAPLTPQQQLLQRQQQALEQQQNGGAMKNANKRSGNNATSNNNNNNNNLDKPKVKRPRKNAKKSESGTPAPKKKRMTKKKQSASSTPSSTTMS
With B5 as the binder, how does the binding read?
The binding was “binds”.

B6: Ada2 (protein, UniProt Q02336 1-434)
chain: MSNKFHCDVCSADCTNRVRVSCAICPEYDLCVPCFSQGSYTGKHRPYHDYRIIETNSYPILCPDWGADEELQLIKGAQTLGLGNWQDIADHIGSRGKEEVKEHYLKYYLESKYYPIPDITQNIHVPQDEFLEQRRHRIESFRERPLEPPRKPMASVPSCHEVQGFMPGRLEFETEFENEAEGPVKDMVFEPDDQPLDIELKFAILDIYNSRLTTRAEKKRLLFENHLMDYRKLQAIDKKRSKEAKELYNRIKPFARVMTAQDFEEFSKDILEELHCRARIQQLQEWRSNGLTTLEAGLKYERDKQARISSFEKFGASTAASLSEGNSRYRSNSAHRSNAEYSQNYSENGGRKKNMTISDIQHAPDYALLSNDEQQLCIQLKILPKPYLVLKEVMFRELLKTGGNLSKSACRELLNIDPIKANRIYDFFQSQNWM
B6 was tested. Which binding did it give?
The binding was “binds”.

B7: Sgf29 (protein, UniProt P25554 1-259)
chain: MDGYWDVVVSSLQDIYNANEVIPFDDELQTKKLNFLNMSKDQLQLHLNTFQEHMENVNRVHRILDNVRSNLSLMLNQSREEKSEENTEDAEEGEGTRMALSQGKKAVGKVGRSYWTSEYNPNAPILVGSEVAYKPRRGSADGEWIQCEVLKVVADGTRFEVRDPEPDELGNSGKVYKCNRKELLLIPPGFPTKNYPPGTKVLARYPETTTFYPAIVIGTKRDGTCRLRFDGEEEVDKETEVTRRLVLPSPTALANLARK
Which binding does the source give for B7 here?
Its binding is “binds”.

B8: Ngg1 (protein, UniProt P32494 1-702)
chain: MPRHGRRGKLPKGEKLPKKEGGDNTPSKLLSSMLKTLDLTFERDIGMLNGKSVRSIPNKKTLLELQSQLDSLNEILGTIARGDQETIEALRKIRDSKNEKQANDEKQETSNADGQHESSTATEETNIIDKGVQSPPKPPPSNEISGTIENDVESIKQAADNMAKEEINEDKDLQVHRDQPREKRPFDSETENRATENENTQRPDNKKQKIDVDKMENDPTVKNPKSEFVVSQTLPRAAAALGLFNEEGLESTGEDFLKKKYNVASYPTNDLKDLLPGELPDMDFSHPKPTNQIQFNTFLAFVENFFKDLSDDNLKFLKMKYIIPDSLQFDKTYDPEVNPFIIPKLGPLYTDVWFKDENDKNSAYKKPSPYSNDASTILPKKSANELDDNALESGSISCGPLLSRLLSAVLKDDNDKSELQSSKIIRDGGLPRTGGEDDIQSFRNNNNDTVDMTLSQENGPSVQTPDNDIDEEASFQAKLAENKGSNGGTTSTLPQQIGWITNGINLDYPTFEERLKRELKYVGIYMNLPKDENNPNSDDPDWVTGREDDEISAELRELQGTLKQVTKKNQKRKAQLIPLVERQLAWQEYSSILEDLDKQIDQAYVKRIRVPKKRKKHHTAASNNVNTGTTSQIAQQKAANSSLKSLLDKRQRWINKIGPLFDKPEIMKRIPNESVFKDMDQEEDEDEADVFAQNTNKDVELN
For B8, which binding is on record?
Its binding is “binds”.

B9: Ubp8 (protein, UniProt P50102 1-471)
chain: MSICPHIQQVFQNEKSKDGVLKTCNAARYILNHSVPKEKFLNTMKCGTCHEINSGATFMCLQCGFCGCWNHSHFLSHSKQIGHIFGINSNNGLLFCFKCEDYIGNIDLINDAILAKYWDDVCTKTMVPSMERRDGLSGLINMGSTCFMSSILQCLIHNPYFIRHSMSQIHSNNCKVRSPDKCFSCALDKIVHELYGALNTKQASSSSTSTNRQTGFIYLLTCAWKINQNLAGYSQQDAHEFWQFIINQIHQSYVLDLPNAKEVSRANNKQCECIVHTVFEGSLESSIVCPGCQNNSKTTIDPFLDLSLDIKDKKKLYECLDSFHKKEQLKDFNYHCGECNSTQDAIKQLGIHKLPSVLVLQLKRFEHLLNGSNRKLDDFIEFPTYLNMKNYCSTKEKDKHSENGKVPDIIYELIGIVSHKGTVNEGHYIAFCKISGGQWFKFNDSMVSSISQEEVLKEQAYLLFYTIRQVN
How did the binding turn out when B9 was run?
The binding was “binds”.

B10: Sgf11 (protein, UniProt Q03067 1-99)
chain: MTEETITIDSISNGILNNLLTTLIQDIVARETTQQQLLKTRYPDLRSYYFDPNGSLDINGLQKQQESSQYIHCENCGRDVSANRLAAHLQRCLSRGARR
Which binding does the source give for B10 here?
The binding was “binds”.

B11: Sgf73 (protein, UniProt P53165 1-657)
chain: MRSGDAEIKGIKPKVIEEYSLSQGSGPSNDSWKSLMSSAKDTPLQYDHMNRESLKKYFNPNAQLIEDPLDKPIQYRVCEKCGKPLALTAIVDHLENHCAGASGKSSTDPRDESTRETIRNGVESTGRNNNDDDNSNDNNNDDDDDDDNDDNEDDDDADDDDDNSNGANYKKNDSSFNPLKRSTSMESANTPNMDTKRSKTGTPQTFSSSIKKQKKVKQRNPTEKHLIDFNKQCGVELPEGGYCARSLTCKSHSMGAKRAVSGRSKPYDVLLADYHREHQTKIGAAAEKRAKQQELQKLQKQIQKEQKKHTQQQKQGQRSKQRNVNGGKSAKNGGKSTVHNGNNINEIGHVNLTPEEETTQVLNGVSRSFPLPLESTVLSSVRYRTKYFRMREMFASSFSVKPGYTSPGYGAIHSRVGCLDLDRTTDYKFRVRTPQPINHLTNQNLNPKQIQRLQQQRALQAQLLSQQQQQQQQQQQHHSPQAQAQASTQQPTQGMVPNHFPGGATNSSFNANVSSKQIQQQQQQQQHKSQDTGLTPLEIQSQQQKLRQQQLQQQKFEAAASYLANATKLMQESNQDSHLSGTHNNNSSKNGNNNLMTMKASISSPNTSVNSIQSPPSVNSVNGSGQGVSTGINVSGNNGRIEVGIGNSVNPYNGRIN
How did the binding turn out when B11 was run?
Its binding is “binds”.

B12: Sus1 (protein, UniProt Q6WNK7 1-96)
chain: MTMDTAQLKSQIQQYLVESGNYELISNELKARLLQEGWVDKVKDLTKSEMNINESTNFTQILSTVEPKALEMVSDSTRETVLKQIREFLEEIVDTQ
B12 was tested. Which binding did it give?
Its binding is “binds”.

B13: Sub1 (protein, UniProt P54000 1-292)
chain: MSYYNRYRNKRRSDNGGGNLSNSNNNNGGMPSGLSASDAIFDLGKNKRVTVRQFRNINLIDIREYYLDSSTGEMKPGKKGISLTEDLYDELLKHRLNIDEALRRLGSKRPKTKMVRLLSDDEYEDDNNNDSTNNDKDKNGKDKNSPKKRREDKSKASNESHDLEPRSKKKKPAPPTLLPHEENIQNAEREANATLIIPGQAGRKQQEERKQKEKEEAEEAKAKAVAEQEKEAKAKEKIAEPEPEPVPTLQAKKEDIVSNINESKDANSSDEEFAQSLEAEMNKAEDDISEEE
For B13, which binding is on record?
The binding was “binds”.

No constants are given. Whether binding was seen depends on the method and setting. Binding seen in cells or lysates may run through a third protein. Here binding means that the protein was enriched with, or labelled near, the bait; the list need not be complete.
